These results are taken from patent publication EP1321493A1, “Method for enhancing the solubility of a colorant” (DSM N.V., priority 2001, dated 2003).

This series can be described thus: Stain testing (wash test for residual staining / washability). Further details: key: 0 = excellent washability; 1 = very good washability; 2 = good washability; 3 = medium washability; 4 = slight washability; 5 = no washability. The conditions noted are these: Comparative Experiment, pure dye; saturated solution, 100 mg dye in 1 ml of water; 4 droplets, left overnight, running tap water for 10 minutes.
Molecule `O=C1/C(=C2\Nc3ccc(S(=O)(=O)[O-])cc3C2=O)Nc2ccc(S(=O)(=O)[O-])cc21.[Na+].[Na+]` [Acid Blue 74] gave a Staining result of 4.

As for `CCN(Cc1cccc(S(=O)(=O)[O-])c1)c1ccc(C(=C2C=CC(=[N+](CC)Cc3cccc(S(=O)(=O)[O-])c3)C=C2)c2ccc(S(=O)(=O)[O-])cc2)cc1.[Na+].[Na+]` [Acid Green 5], the Staining result amounted to 4.

Consider `CCN(CC)c1ccc2c(-c3ccc(S(=O)(=O)[O-])cc3S(=O)(=O)[O-])c3ccc(=[N+](CC)CC)cc-3oc2c1.[Na+]` [Acid Red 52], for which the Staining result was 2.

Take `CN(c1ccccc1)c1nc(Cl)nc(Nc2cc(S(=O)(=O)[O-])cc3cc(S(=O)(=O)[O-])c(N=Nc4ccccc4S(=O)(=O)[O-])c(O)c23)n1.[Na+].[Na+].[Na+]` [Reactive Red 24]: the Staining result worked out at 4.

`CC1=C/C(=C(\c2ccc(N)c(S(=O)(=O)[O-])c2)c2ccc(N)c(S(=O)(=O)O)c2)C=C(S(=O)(=O)[O-])C1=N.[Na+].[Na+]` [Acid Violet 19]: the Staining result is reported as 3.

`CCN(CC)c1ccc(C(=C2C=CC(=[N+](CC)CC)C=C2)c2ccc(S(=O)(=O)[O-])cc2S(=O)(=O)[O-])cc1.[Na+]` [Acid Blue 1] returned a Staining result of 2.

Turning to Reactive Blue 4, the Staining result is recorded as 4.

In turn, `Nc1c(N=Nc2ccc(S(=O)(=O)CCOS(=O)(=O)[O-])cc2)c(S(=O)(=O)[O-])cc2cc(S(=O)(=O)[O-])c(N=Nc3ccc(S(=O)(=O)CCOS(=O)(=O)[O-])cc3)c(O)c12.[Na+].[Na+].[Na+].[Na+]` [Reactive Black 5] displayed a Staining result of 4.

In the case of Acid Yellow 17, the Staining result came out at 2.
